According to PMC10897374 (Scientific Reports, 2024):
Plain letter strings leave the end groups untold. Strings that start with PEPTIDE1 are HELM notation: dots part the residues, brackets hold end groups and non-standard residues.

Test: general procedure: Fmoc solid-phase peptide synthesis; Fmoc-aa-hydroxymethylated resin, 0.6 to 1.00 mmol g^-1; DIC/HOBt
Settings: whole synthesis, 220 nm

CDRVYIHPFC
final HPLC purity (one disulfide bridge, sequence written open): 98%

PEPTIDE1{D.R.V.Y.I.H.P.F}$$$$V2.0
final HPLC purity: 98%

PEPTIDE1{V.I.P.F}$$$$V2.0
final HPLC purity: 99%
